Values quoted from earlier work, collected in patent publication US20140163075A1, “MODULATION OF THE UBIQUITIN-PROTEASOME SYSTEM (UPS)” (NETHERLAND CANCER INSTITUTE, priority 2011, published 2014).
For at least one compound, name, drawing or mass did not settle the structure.

How the values were obtained:
proteasome [1] = conditions: literature overview; cited from earlier work
proteasome [2] = conditions: literature overview; cited from earlier work; remark: listed apart in the source

For C/C=C1/[C@H](O[C@@H]2O[C@H](CO)[C@@H](O)[C@H](O)[C@H]2O)OC=C(C(=O)OC)[C@H]1CC(=O)OCCc1ccc(O)c(O)c1 [Oleuropein], the “Results: purified proteasome/lysate” value (proteasome [1]) is listed as “Increases all 3 proteasome” and the “Results: live cells” value (proteasome [2]) is listed as “No effect”.
